In publication PMC5437310 one finds binding data, which are given here for 1 substance.

The chains behind the UniProt entries cited, without tags or fusion partners. Where a name states a change or a piece, a line headed by the entry shows the natural chain unless it says otherwise.
UniProt Q9VWE4: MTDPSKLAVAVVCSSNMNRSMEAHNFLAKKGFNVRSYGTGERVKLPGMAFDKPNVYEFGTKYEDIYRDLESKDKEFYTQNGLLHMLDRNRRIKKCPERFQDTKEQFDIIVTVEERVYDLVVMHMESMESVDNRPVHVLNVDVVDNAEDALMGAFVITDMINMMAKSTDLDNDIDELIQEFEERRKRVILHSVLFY

No constants are given. Whether binding was seen depends on the method and setting. A result given as binding can be weak or reduced; the word gives no strength.

This assay addresses T1, D. melanogaster symplekin (residues 19-351) (Drosophila melanogaster) (UniProt Q8MSU4).
T1 sequence: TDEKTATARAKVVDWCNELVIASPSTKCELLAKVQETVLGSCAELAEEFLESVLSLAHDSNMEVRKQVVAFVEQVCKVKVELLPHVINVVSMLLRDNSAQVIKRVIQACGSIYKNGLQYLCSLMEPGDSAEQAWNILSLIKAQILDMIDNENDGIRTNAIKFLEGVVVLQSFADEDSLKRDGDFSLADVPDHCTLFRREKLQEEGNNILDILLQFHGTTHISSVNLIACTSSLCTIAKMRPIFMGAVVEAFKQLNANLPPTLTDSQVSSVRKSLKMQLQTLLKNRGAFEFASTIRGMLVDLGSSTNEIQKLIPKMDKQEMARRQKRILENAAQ
As to the kind of experiment: SEC; Ssu72 and symplekin incubated at a molar ratio of 1:1.5 overnight at 4 °C in a dialysis bag; complex separated from unbound protein on Superdex-200; complex formation verified by SDS-PAGE; both purified. (In general: SEC sorts molecules by how far they enter the pores of the column.)

As to “D. melanogaster Ssu72 phosphatase (from UniProt Q9VWE4) (enzyme)”, the binding result is reported as “binds”.
